## Primary screen of a compound library

By UniProt entry, the sequences of proteins in these tests, tags left out. Residues count along the entry.
UniProt P9WNZ1, whole entry: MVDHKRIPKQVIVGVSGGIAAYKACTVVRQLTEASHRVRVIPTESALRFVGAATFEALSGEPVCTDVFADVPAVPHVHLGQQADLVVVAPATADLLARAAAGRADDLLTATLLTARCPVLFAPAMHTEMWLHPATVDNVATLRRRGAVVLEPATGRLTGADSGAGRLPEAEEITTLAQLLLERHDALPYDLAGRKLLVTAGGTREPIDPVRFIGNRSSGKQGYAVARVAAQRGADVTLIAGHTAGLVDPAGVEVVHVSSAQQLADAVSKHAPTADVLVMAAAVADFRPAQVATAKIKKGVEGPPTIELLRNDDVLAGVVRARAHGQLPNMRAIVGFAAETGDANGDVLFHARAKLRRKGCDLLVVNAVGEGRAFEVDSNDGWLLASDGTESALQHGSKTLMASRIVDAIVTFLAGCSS
UniProt Q4DA54, 1-478: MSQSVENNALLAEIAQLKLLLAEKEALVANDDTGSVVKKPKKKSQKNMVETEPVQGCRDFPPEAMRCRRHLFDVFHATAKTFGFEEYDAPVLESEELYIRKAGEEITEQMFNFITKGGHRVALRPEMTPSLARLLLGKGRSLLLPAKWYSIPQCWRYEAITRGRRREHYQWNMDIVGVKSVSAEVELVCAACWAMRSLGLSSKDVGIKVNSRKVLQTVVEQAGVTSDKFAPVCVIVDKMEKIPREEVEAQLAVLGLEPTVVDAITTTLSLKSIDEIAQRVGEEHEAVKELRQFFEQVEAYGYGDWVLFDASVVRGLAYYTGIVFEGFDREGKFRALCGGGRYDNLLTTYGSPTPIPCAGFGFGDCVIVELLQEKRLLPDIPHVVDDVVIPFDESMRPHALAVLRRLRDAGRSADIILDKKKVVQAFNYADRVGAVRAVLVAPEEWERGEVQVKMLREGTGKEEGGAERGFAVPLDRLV

CoaBC: 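Coenzyme A biosynthesis protein CoaBC, Mycobacterium tuberculosis (UniProt P9WNZ1). Enzyme assay of CoaBC with a phosphate dye (Biomol Green) read at 650 nm. Compounds at 30 µM. Higher reads as stronger inhibition, judged from the few compounds that gave an IC50. Most strong results did not repeat in a second test. Of about 67,000 compounds tested this way, about 40 (0.06%) reached 50% or more in at least one test.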
TcHisRS: 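Histidine-tRNA ligase, Trypanosoma cruzi CL Brener (UniProt Q4DA54). Enzyme assay of histidyl-tRNA synthetase; the read-out is not stated. Compounds at 30 µM. Direction is inferred from retests: higher values go with stronger inhibition. About 69,000 compounds were tested under these conditions; 0.045% (about 31) showed 50% or more at least once.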

Each number is a percent effect as filed. The record does not define 0% and 100%; most values in the screen are far below 50% and negative numbers occur (in some assays of this library far below -100). The compounds are a random part of those screened. Two or more numbers in one place are separate tests of the same structure; such repeats can differ widely. A dash means the value is not listed here; it may have been measured.

| structure | CoaBC | TcHisRS |
|---|---|---|
| `O=C(c1scc2c1OCCO2)N1CCOC(Cc2cccc(F)c2)C1` (centres unmarked) | 1.79% | 6.061% |
| `COCCO[C@H]1CCN(C(=O)c2cccnc2)[C@H]1Cc1cnn(C)c1` | 7.81% | 3.067% |
| `CC(C)NC(=O)CC1COC2(CCN(Cc3ccco3)CC2)C1` (centres unmarked) | 0.9412% | 0.4808% |
| `Cn1cc(C(=O)CC2CCCN2C(=O)c2ccn3ccnc3c2)cn1` (centres unmarked) | 0.8537% | 1.807% |
| `CC(=O)N1CCc2c(nc(N(C)C)nc2NCCc2cccs2)C1` | 5.6% | 1.149% |
| `CC(=O)Nc1nc(C(=O)NCCOc2cccc(F)c2)cs1` | 6.601% | 0% |
| `Cn1ccnc1CN1CCC2(COCCN(Cc3ccsc3)C2)C1` (centres unmarked) | -1.818% | 0.8368% |
| `CCOc1cc(C)nc(N2CCN(C(=O)c3ccc[nH]3)CC2)n1` | 5.396% | 3.448% |
| `CC(C)(O)CN1CCN(C(=O)c2cccc3cccnc23)CC1` | -1.579% | 8.504% |
| `O=C(NCC1CCS(=O)(=O)C1)N(Cc1ccccn1)C1CC1` (centres unmarked) | 6.561% | 0.5291% |
| `CCO[C@H]1C[C@@H](O)C12CCN(C1CCN(c3ccccc3)CC1)CC2` | -3.674% | -1.026% |
| `Cc1cccc(CN2CCC(c3nnsc3S(C)(=O)=O)CC2)n1` | 0.9685% | 11.11% |
| `COc1cccc2c(=O)n(C3CCNCC3)cnc12` | -2.481% | 8.671% |
| `COC(=O)CCC(=O)N(Cc1ccc2cc[nH]c2c1)C1CC1` | 2.152% | 6.211% |
| `Cc1nccc(CC2COCCN(c3cnccn3)C2)n1` (centres unmarked) | 2.375% | 2.308% |
| `Cc1noc(C)c1CN1CC[C@H]2[C@@H]1CCC(=O)N2CC1CCOCC1` | 1.22% | 3.333% |
| `Cc1ccsc1CNCc1c(C(C)C)nn(C)c1N1CCOCC1` | 5.443% | 3.659% |
| `Cn1cccc1-c1cc(C(=O)NCCCc2csc(N)n2)[nH]n1` | 13.45% | 3.279% |
| `COc1cccc2ccn(CC(=O)NCCC(C)C)c12` | 0% | 0.5848% |
| `CCc1nc(CC(=O)Nc2cnn(CC3CCCO3)c2)cs1` (centres unmarked) | -0.6397% | 3.333% |
| `O=C(c1ncccn1)N1CCC2(CC1)COC(COc1ccccn1)C2` (centres unmarked) | 1.261% | 9.091% |
| `CNC(=O)NC(=O)CN1CCN(CC2CC2)c2ccccc21` | 4.808% | 11.39% |
| `c1cc(CNCC2CNc3ccnn3C2)cc(OC2CCCCC2)n1` (centres unmarked) | 3.602% | 12.89% |
| `CCc1ccc(O)c(C(=O)NC2CCN(Cc3ccncc3)CC2)c1` | 3.109% | -9.16% |
| `COc1ccccc1C(=O)N1CC(=O)N(CC(C)C)CC(O)C1` (centres unmarked) | -1.453% | 6.742% |
| `O=S(=O)(C1CC1)N1CCc2c(CN3CCOCC3)cncc2C1` | 1.463% | 3.333% |
| `O=C1NCCN1C1CCN(Cc2nc(-c3ccsc3)no2)CC1` | -3.226% | 5.747% |
| `CC(=O)NC1(C(=O)N(C)Cc2c(C)noc2C)CCCCC1` | -2.211% | 4.706% |
| `O=C(NCc1ccc(-c2ccn[nH]2)cc1)N1CCC(N2CCCC2)C1` (centres unmarked) | 3.84% | 4.545% |
| `CN1C(=O)C(c2cccnc2)CC12CCN(Cc1nccs1)CC2` (centres unmarked) | 1.22% | 1.111% |
| `NC(=O)C1=NN2C(=NS(=O)(=O)c3ccccc32)N1` | 5.506% | -0.6135% |
| `Cc1ccc2[nH]c(C(=O)N3CCCC3Cn3cccn3)cc2c1` (centres unmarked) | 7.955% | 5.764% |
| `CN(C)C(=O)N1CC2(CCN(S(=O)(=O)C3CC3)CC2)c2ccccc21` | 0.9346% | 8.696% |
| `O=C1CN([C@@H]2CC[C@@H](NS(=O)(=O)c3ccc(F)cc3)[C@H]2O)CCN1` | -3.874% | 3.39% |
| `O=C(NCCN1CCNC1=O)c1cc(-c2ccc(O)cc2)n[nH]1` | 0.4963% | 5.202% |
| `COCC1CN(C(=O)C2=CCCCC2)Cc2cnn(CC3CC3)c21` (centres unmarked) | 5.196% | 4.348% |
| `Cn1cc(CN2CCCC(CCc3ccc(F)c(F)c3)C2)cn1` (centres unmarked) | 1.222% | 3.279% |
| `Cc1ncsc1CN1CC[C@H]2OCC[C@@]2(C(=O)N2CCCO2)C1` | 0.6316% | 4.301% |
| `Cc1cnn(CC2CCCCN2Cc2nccn2CC(F)(F)F)c1` (centres unmarked) | -3.753% | 3.704% |
| `CCOc1ccccc1NC(C)C(=O)N(C)Cc1cccc(F)c1` (centres unmarked) | 0.641% | 0% |
| `CN(C)c1ccc(NC(=O)NCC2CCOC2)cn1` (centres unmarked) | 3.158% | 14.37% |
| `CCc1csc(C2CCCN(C(=O)c3ccccn3)C2)n1` (centres unmarked) | 2.71% | 6.897% |
| `CC(C)(NS(C)(=O)=O)C(=O)NCc1cccc(Br)c1` | 0.3226% | 6.404% |
| `COC(=O)CN(Cc1ccccc1C)C(=O)CCCNC(=O)C1CC1` | 3.629% | 0.8403% |
| `O=C(O)Cn1nc(C2CC2)c2c(-c3ccco3)ccnc21` | -0.9639% | 4.95% |
| `CS(=O)(=O)N1CCN(Cc2c(O)ccc3oc4c(c23)CCCC4)CC1` | -0.2439% | 9.091% |
| `c1c[nH]c(CN2CCC3(CC2)COCCN(CCN2CCCC2)C3)c1` | - | 9.816% |
| `Cc1cc(=O)n(CC(=O)Nc2ccc(Cl)cc2)nc1C` | -0.6031% | 0.5025% |
| `Cc1nc[nH]c1CN1CCN(C2CCOCC2)CC(C(N)=O)C1` (centres unmarked) | 0.3717% | 2.996% |
| `COCCC(=O)NCCc1nc(N(C)C)ncc1-c1ccncc1` | 0% | 7.28% |
| `NC[C@H]1CC[C@H](C(NC(=O)c2ccccn2)c2ccccn2)CC1` (some centres unmarked) | 1.178% | 7.527% |
| `O=C(NCCCO)NCCc1cc(F)ccc1F` | -7.025% | 10% |
| `COCCOc1ccnc(-c2noc([C@@H]3CCCN3CC(C)C)n2)c1` | -3.753% | 2.174% |
| `Cc1cc(CN2CC[C@H]3C[C@@H](C)O[C@@H]3C2)no1` | 7.099% | 12.61% |
| `CNc1ncc(C(=O)N2CCOC(C(=O)Nc3ccccc3)C2)cn1` (centres unmarked) | 9.448% | 6.977% |
| `c1cc(-c2nnc([C@H]3CCNC3)o2)ccn1` | 21.81% & 19.05% | 1.493% |
| `O=C(Cc1ccccc1)C1CCCN(Cc2cncn2C2CCCC2)C1` (centres unmarked) | 1.79% | 9.091% |
| `OC1CCCOC12CCN(Cc1nnc(-c3cccnc3)o1)CC2` (centres unmarked) | 2.101% | 10% |
| `c1cncc(C(Cn2cnnc2)N2CCOCC2)c1` (centres unmarked) | 5.785% | 0.578% |
| `CC(C)[C@H]1CN(C(=O)CO)C[C@@H]1N(C)C` | -2.716% | 2.488% |
| `N#Cc1cccc(OCC(=O)N(Cc2ccsc2)C2CC2)c1` | -1.985% | 8.671% |
| `CCN(CC1CCOC1)C(=O)c1cc(F)ccc1N1CCN(C)CC1` (centres unmarked) | 1.405% | -0.578% |
| `Cc1n[nH]c(C)c1NC(=O)CN1CCn2c(nnc2C(C)C)C1` | 5.641% | -1.132% |
| `CC(Cn1cccn1)NC(=O)NCc1cccs1` (centres unmarked) | 4.302% | -7.17% |
| `CCc1nnc2n1CCN(Cc1cc(Cl)c3c(c1)OCCCO3)C2` | 7.597% | 7.872% |
| `CS(=O)(=O)N1CCCC12CCN(Cc1ccoc1)CC2` | -1.951% | -1.111% |
| `CC1CCN(CCCNC(=O)C2CCCCC2)CC1` | 4.747% | 1.478% |
| `O=C1CN(C(=O)OCc2ccccc2)CC(O)CN1Cc1ccco1` (centres unmarked) | -0.4843% | 0% |
| `CC(=O)CCCC(=O)N(Cc1ccsc1)CC(C)C` | 1.408% | 3.933% |
| `CCC(=O)N1CCN(c2ncnc3c(C)nn(C)c23)CC1` | 5.774% | 5.217% |

The first 9 entries again:

structure,CoaBC,TcHisRS
O=C(c1scc2c1OCCO2)N1CCOC(Cc2cccc(F)c2)C1 (centres unmarked),1.79%,6.061%
COCCO[C@H]1CCN(C(=O)c2cccnc2)[C@H]1Cc1cnn(C)c1,7.81%,3.067%
CC(C)NC(=O)CC1COC2(CCN(Cc3ccco3)CC2)C1 (centres unmarked),0.9412%,0.4808%
Cn1cc(C(=O)CC2CCCN2C(=O)c2ccn3ccnc3c2)cn1 (centres unmarked),0.8537%,1.807%
CC(=O)N1CCc2c(nc(N(C)C)nc2NCCc2cccs2)C1,5.6%,1.149%
CC(=O)Nc1nc(C(=O)NCCOc2cccc(F)c2)cs1,6.601%,0%
Cn1ccnc1CN1CCC2(COCCN(Cc3ccsc3)C2)C1 (centres unmarked),-1.818%,0.8368%
CCOc1cc(C)nc(N2CCN(C(=O)c3ccc[nH]3)CC2)n1,5.396%,3.448%
CC(C)(O)CN1CCN(C(=O)c2cccc3cccnc23)CC1,-1.579%,8.504%

The values are deposited in ChEMBL (CHEMBL3988442, “University of Dundee, Small-Polar-MMV Screening Library” (2021)).